Reference: the supplement of paper PMC8551327
Structures can show the parent of a compound that is named as a salt. The list shows a part of the results. Cut-off read from the data, not from the text of the source: active = 1.25 or more and inactive = the rest. Single values are uncertain, as repeats are few or missing.

These molecules were tested on Kcc2-LUC knock-in mouse primary cortical neurons (Kcc2 promoter reporter) (assay: Kcc2 promoter-driven luciferase activity relative to vehicle control (fold of vehicle (ratio)); higher = stronger Kcc2 promoter activation (Kcc2 expression enhancer)). Conditions: 100 nM; 48 h.

Structure (SMILES) | Kcc2 promoter-driven luciferase activity
NC1=C(Br)C(=O)c2ncccc2C1=O [6-amino-7-bromoquinoline-5,8-dione] | inactive: 0.29
CCCCCCCCCCSCC(CO)NC(=O)/C=C/c1c(C)[nH]c(=O)[nH]c1=O (stereo not drawn) | inactive: 1
O=C1C(C(O)(C(F)(F)F)C(F)(F)F)CCC1C(O)(C(F)(F)F)C(F)(F)F (stereo not drawn) | inactive: 0.96
COc1cc2c3c(c1OC)-c1cc4c(cc1CC3(C#N)N(C(=O)c1ccccc1)CC2)OCO4 (stereo not drawn) | inactive: 1.09
Cc1cc(=O)[nH]c(NN2C(Cl)C(=O)C2c2cccc([N+](=O)[O-])c2)n1 (stereo not drawn) | inactive: 1.18
COc1cc(OC)c(OC)cc1/C=C/c1ccnc2ccccc12 [4-[(E)-2-(2,4,5-Trimethoxyphenyl)ethenyl]quinoline] | inactive: 0.94
CN(Cc1cnc2nc(N)nc(N)c2n1)c1ccc(C(=O)NC(CCC(=O)O)C(=O)O)c2ccccc12 (stereo not drawn) | inactive: 0.82
COc1cc([C@@H]2c3cc4c(cc3[C@@H](O[C@@H]3O[C@@H]5CO[C@@H](c6cccs6)O[C@H]5[C@H](O)[C@H]3O)[C@H]3COC(=O)[C@H]23)OCO4)cc(OC)c1O [Teniposide] | inactive: 1.18
O=C(O)c1ccc(Nc2c3ccccc3nc3ccccc23)cc1 [Sodium;4-(acridin-9-ylamino)benzoate] | inactive: 1.2
COc1cc2c(c(OC)c1OC)-c1c(cc3c(c1OC)OCO3)C[C@H](C)[C@](C)(O)[C@H]2OC(=O)c1ccccc1 [Gomisin C] | inactive: 1.09
C[C@H]1O[C@@H](c2ccc3c(c2O)C(=O)C2=C(C3=O)[C@@]3(O)C(=O)C[C@](C)(O)C[C@@]3(O)C=C2)C[C@@H](O)[C@@H]1O [Aquaymycin] | inactive: 1.24
O=c1cnn([C@@H]2O[C@H](CO)[C@@H](O)[C@H]2O)c(=S)[nH]1 [6-Aza-2-thiouridine] | inactive: 0.89
COc1ccc(OC)c2nc3c(C(=O)NCCN(C)C)cccc3nc12 [1-Phenazinecarboxamide,9-dimethoxy-, monohydrochloride] | inactive: 0.72
Cc1c(Cl)cccc1NC(=O)CC1Sc2ccccc2NC1=O (stereo not drawn) | inactive: 0.82
CC(=O)O[C@]1(C(C)=O)CC[C@H]2[C@@H]3C[C@H](C)C4=CC(=O)C=C[C@]4(C)[C@@]3(F)[C@@H](O)C[C@@]21C | inactive: 0.42
CC(Cc1ccccc1)NC1=NCCO1 (stereo not drawn) [N-(1-Phenylpropan-2-yl)-4,5-dihydrooxazol-2-amine] | inactive: 0.97
CC(C)CCCCCCCCCCCCC(=O)NCC(=O)N[C@@H]1[C@@H](O)[C@H](O)[C@@H](Nc2ncnc3nc[nH]c23)O[C@H]1[C@@H](O)CO [Septacidin] | inactive: 0.79
NC1(C(=O)O)CCCC1 [Cycloleucine] | inactive: 0.86
OC[C@H]1O[C@@H](n2cnc3c(SCc4ccccc4)ncnc32)[C@H](O)[C@@H]1O [6-Benzylthioinosine] | inactive: 0.98
N=N/C(=C\c1c(O)[nH]c2ccccc12)c1ccccc1 | inactive: 0.9
C=C1C(=O)O[C@@H]2C[C@@]3(C)CCC[C@H](C)C3=C[C@H]12 [Helenin] | inactive: 0.52
NC(=O)NO [Hydroxyurea] | inactive: 0.99
CCOC(=O)Nc1cc2c(c(N)n1)N=C(c1ccccc1)CN2 | active: 1.72
Oc1ccc(-c2nc(-c3cccnc3)c(-c3ccc(F)cc3)[nH]2)cc1 [4-[5-(4-Flourophenyl)-4-(3-pyridyl)-1H-imidazol-2-yl]phenol] | inactive: 1.04
CC(=O)N=C1N(/C=C2\C(=O)Oc3ccccc3C2=O)C(=O)/C(=C/c2ccccc2Cl)N1C | inactive: 0.46
C=C1C(=O)OC2CC(C)C3(O)CCC(=O)C3(C)CC12 (stereo not drawn) [Sequiterpene Lactone 326] | active: 1.36
CN1CCN(CN2C(=O)C3C4C=CC(C3C2=O)C2C3C(=O)N(CN5CCN(C)CC5)C(=O)C3C42)CC1 (stereo not drawn) | inactive: 0.92
O=c1oc2ccccc2cc1-c1ccc([N+](=O)[O-])cc1 [2H-1-Benzopyran-2-one,3-(4-nitrophenyl)-] | inactive: 0.27

Sorted by SMILES length (rising): part of the list above.
Structure (SMILES) | Kcc2 promoter-driven luciferase activity
O=c1oc2ccccc2cc1-c1ccc([N+](=O)[O-])cc1 [2H-1-Benzopyran-2-one,3-(4-nitrophenyl)-] | inactive: 0.27
C=C1C(=O)O[C@@H]2C[C@@]3(C)CCC[C@H](C)C3=C[C@H]12 [Helenin] | inactive: 0.52
O=c1cnn([C@@H]2O[C@H](CO)[C@@H](O)[C@H]2O)c(=S)[nH]1 [6-Aza-2-thiouridine] | inactive: 0.89
O=C1C(C(O)(C(F)(F)F)C(F)(F)F)CCC1C(O)(C(F)(F)F)C(F)(F)F (stereo not drawn) | inactive: 0.96
OC[C@H]1O[C@@H](n2cnc3c(SCc4ccccc4)ncnc32)[C@H](O)[C@@H]1O [6-Benzylthioinosine] | inactive: 0.98
COc1cc2c3c(c1OC)-c1cc4c(cc1CC3(C#N)N(C(=O)c1ccccc1)CC2)OCO4 (stereo not drawn) | inactive: 1.09
CN1CCN(CN2C(=O)C3C4C=CC(C3C2=O)C2C3C(=O)N(CN5CCN(C)CC5)C(=O)C3C42)CC1 (stereo not drawn) | inactive: 0.92
COc1cc2c(c(OC)c1OC)-c1c(cc3c(c1OC)OCO3)C[C@H](C)[C@](C)(O)[C@H]2OC(=O)c1ccccc1 [Gomisin C] | inactive: 1.09
